Laboratory results published in patent US20230365684A1.
Results are given in words; binding and its absence hold for the method and conditions named. Some entries that bind do so weakly or less than the wild type.

Chains of the proteins cited; added tags and fusions are not shown. Lines headed by an entry give the natural chain unless they say otherwise; changes in a name come on top. Residues count along the entry.
UniProt P20138: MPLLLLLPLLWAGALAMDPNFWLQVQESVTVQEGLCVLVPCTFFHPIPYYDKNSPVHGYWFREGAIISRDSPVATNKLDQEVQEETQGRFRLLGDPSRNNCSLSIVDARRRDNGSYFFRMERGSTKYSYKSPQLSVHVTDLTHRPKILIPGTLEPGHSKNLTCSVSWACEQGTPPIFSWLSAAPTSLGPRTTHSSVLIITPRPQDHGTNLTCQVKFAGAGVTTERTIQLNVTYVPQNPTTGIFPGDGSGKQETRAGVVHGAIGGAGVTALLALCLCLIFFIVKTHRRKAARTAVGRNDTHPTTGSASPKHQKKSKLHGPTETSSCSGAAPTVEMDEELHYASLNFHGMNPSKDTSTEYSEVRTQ
human CD33 on cells (MOLM-13, Kasumi-1, OCI-AML-3, Kasumi-3): residues 18-364 of P20138
CD33 plated on 96 well plates (binding ELISA of Example 20): residues 18-259 of P20138

How the values were obtained:
[1] = target: human CD33 on cells (MOLM-13, Kasumi-1, OCI-AML-3, Kasumi-3) (human) (UniProt P20138); test: flow cytometry on MOLM-13 cells, 4 °C, detection with PE goat F(ab')2 anti-human IgG-Fc
[2] = target: human CD33 on cells (MOLM-13, Kasumi-1, OCI-AML-3, Kasumi-3) (human) (UniProt P20138); test: flow cytometry on Kasumi-1 cells, 4 °C, detection with PE goat F(ab')2 anti-human IgG-Fc [contd]
[3] = target: human CD33 on cells (MOLM-13, Kasumi-1, OCI-AML-3, Kasumi-3) (human) (UniProt P20138); test: flow cytometry on OCI-AML-3 cells, 4 °C, detection with PE goat F(ab')2 anti-human IgG-Fc [contd]
[4] = target: human CD33 on cells (MOLM-13, Kasumi-1, OCI-AML-3, Kasumi-3) (human) (UniProt P20138); test: flow cytometry, Alexa Fluor 647-conjugated antibody incubated with cells at 37 °C and 4 °C for 2 to 24 hrs; cell line not named on the sheet [contd]
[5] = target: CD33 plated on 96 well plates (binding ELISA of Example 20) (UniProt P20138); test: ELISA on plated CD33, E. coli supernatant heated at 55/60/65 °C, luminescence as percent of RT

Binder	binding [5]	other results
C33B836.006 (antibody, V domains shown) VH: QVQLVQSGSELRKPGASVKVSCKASGYTFTNYAMNWVRQAPGQGLEWMGWINTNTGNPTYAQGFTGRFVFSLDTSVSSAYLQISSLKAEDTAMYYCATDRDRGTDYWGQGTLVTVSS VL: QSALTQPASVSGSPGQSITISCTGTSSDVGDYNYVSWYQQHPGKVPKLMIYDVSNRPSGVSNRFSGSMSGNTASLTISGLQAEDEADYYCSSYSSSSALEVFGGGTKLTVL	–	binding [1]: binds; binding [2]: binds; binding [3]: binds; binding [4]: binds
C33B1475VH1-12 (scFv) scFv: DIVMTQSPLSLPVTPGEPASISCRSSQSLLHSDGYNYLDWYLQKSGQSPQLLIYLGSYRASGVPDRFSGSGSGTDFTLKISRVEAEDVGIYYCMQVLQTPWTFGQGTKVEIKGGSEGKSSGSGSESKSTGGSEVQLVESGGGLVQPGGSLRLSCVVSGFTFSSYWMTWVRQAPGKGLEWVANIKQPGSERYYVDSVKGRFTISRDSAKNSLYLQMNSLRAEDTAVYYCAREVGYNWNQGGYFDYWGQGTLVTVSS	binds	–
C33B1475VH1-14 (scFv) scFv: DIVMTQSPLSLPVTPGEPASISCRSSQSLLHSDGYNYLDWYLQKSGQSPQLLIYLGSYRASGVPDRFSGSGSGTDFTLKISRVEAEDVGIYYCMQVLQTPWTFGQGTKVEIKGGSEGKSSGSGSESKSTGGSEVQLVESGGGLVQPGGSLRLSCVVSGFTFSSYWMTWVRQAPGKGLEWVANIKQNGSERYYVDSVKGRFTISRDSAKNSLYLQMNSLRAEDTAVYYCAREVGYNWNQGGYFDYWGQGTLVTVSS	binds	–
C33B1475VH1-27 (scFv) scFv: DIVMTQSPLSLPVTPGEPASISCRSSQSLLHSDGYNYLDWYLQKSGQSPQLLIYLGSYRASGVPDRFSGSGSGTDFTLKISRVEAEDVGIYYCMQVLQTPWTFGQGTKVEIKGGSEGKSSGSGSESKSTGGSEVQLVESGGGLVQPGGSLRLSCVVSGFTFSSYWMTWVRQAPGKGLEWVANIKQRGSERYYVDSVKGRFTISRDSAKNSLYLQMNSLRAEDTAVYYCAREVGYNWNQGGYFDYWGQGTLVTVSS	binds	–
C33B1475VH1-32 (scFv) scFv: DIVMTQSPLSLPVTPGEPASISCRSSQSLLHSDGYNYLDWYLQKSGQSPQLLIYLGSYRASGVPDRFSGSGSGTDFTLKISRVEAEDVGIYYCMQVLQTPWTFGQGTKVEIKGGSEGKSSGSGSESKSTGGSEVQLVESGGGLVQPGGSLRLSCVVSGFTFSSYWMTWVRQAPGKGLEWVANIKQLGSERYYVDSVKGRFTISRDSAKNSLYLQMNSLRAEDTAVYYCAREVGYNWNQGGYFDYWGQGTLVTVSS	binds	–
